Earlier results, collected in patent EP0149197B2, “Pharmaceutical compositions containing drugs which are sparingly soluble in water or instable and methods for their preparation” (priority 1983, dated 1985).
At least one structure is not confirmed: it was looked up by name or label, or the drawing left a doubt.

Conditions: with the 2,6-Di-O-methylderivat of β-cyclodextrin; cited from earlier work

For `COc1ccc2c(c1)c(CC(=O)O)c(C)n2C(=O)c1ccc(Cl)cc1` [Indometacin], the “Steigerung der Löslichkeit in Wasser” value is given as 20,4 -fache.
